Data as given in the supplement of paper PMC12823440, “Inhibitors supercharge kinase turnover through native proteolytic circuits” (Nature, 2025).
Structures can show the parent of a compound that is named as a salt. Some of the results follow. The calls rarely recur for the same compound in another form.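 Kinases were expressed as nanoluciferase fusions in K562 cells and luminescence was read every 4 h between 2 and 18 h as percent of control, DMSO set to 100% and a positive control to 0%. A time point counts as decreased when the signal drops significantly (2 sigma). The hit call is the authors' own, does not follow from the count of time points alone, and its rule is not shown.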

Protein sequences, listed by entry. Tags and fused reporters are not part of them. Lines headed by an entry give the natural chain unless they say otherwise; changes in a name come on top.
UniProt P28482, whole entry: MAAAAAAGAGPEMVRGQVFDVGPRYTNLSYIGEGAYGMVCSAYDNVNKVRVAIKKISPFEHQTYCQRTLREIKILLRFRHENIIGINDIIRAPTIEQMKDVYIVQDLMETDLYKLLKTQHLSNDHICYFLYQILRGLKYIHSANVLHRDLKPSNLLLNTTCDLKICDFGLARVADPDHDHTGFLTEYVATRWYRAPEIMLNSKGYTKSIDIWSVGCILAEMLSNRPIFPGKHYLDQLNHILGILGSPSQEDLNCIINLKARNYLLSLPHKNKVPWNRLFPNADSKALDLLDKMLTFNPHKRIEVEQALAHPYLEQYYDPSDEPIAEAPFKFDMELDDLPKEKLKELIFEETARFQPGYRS
UniProt P31152, whole entry: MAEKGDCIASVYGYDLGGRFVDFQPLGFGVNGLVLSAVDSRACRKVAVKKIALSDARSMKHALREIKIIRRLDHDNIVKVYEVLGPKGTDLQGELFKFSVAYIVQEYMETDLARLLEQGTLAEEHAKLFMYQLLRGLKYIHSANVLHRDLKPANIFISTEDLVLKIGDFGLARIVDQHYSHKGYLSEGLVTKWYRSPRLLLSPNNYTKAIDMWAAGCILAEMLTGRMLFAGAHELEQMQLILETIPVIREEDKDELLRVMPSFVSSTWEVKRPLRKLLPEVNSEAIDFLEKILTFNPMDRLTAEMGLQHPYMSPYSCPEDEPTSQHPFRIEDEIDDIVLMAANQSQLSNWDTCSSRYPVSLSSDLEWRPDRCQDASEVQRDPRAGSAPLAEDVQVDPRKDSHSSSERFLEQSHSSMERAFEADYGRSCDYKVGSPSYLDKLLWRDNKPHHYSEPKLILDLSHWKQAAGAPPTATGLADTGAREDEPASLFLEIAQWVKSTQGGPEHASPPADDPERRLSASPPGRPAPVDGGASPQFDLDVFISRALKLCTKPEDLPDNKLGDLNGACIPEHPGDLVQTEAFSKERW
UniProt P49137, whole entry, looked up: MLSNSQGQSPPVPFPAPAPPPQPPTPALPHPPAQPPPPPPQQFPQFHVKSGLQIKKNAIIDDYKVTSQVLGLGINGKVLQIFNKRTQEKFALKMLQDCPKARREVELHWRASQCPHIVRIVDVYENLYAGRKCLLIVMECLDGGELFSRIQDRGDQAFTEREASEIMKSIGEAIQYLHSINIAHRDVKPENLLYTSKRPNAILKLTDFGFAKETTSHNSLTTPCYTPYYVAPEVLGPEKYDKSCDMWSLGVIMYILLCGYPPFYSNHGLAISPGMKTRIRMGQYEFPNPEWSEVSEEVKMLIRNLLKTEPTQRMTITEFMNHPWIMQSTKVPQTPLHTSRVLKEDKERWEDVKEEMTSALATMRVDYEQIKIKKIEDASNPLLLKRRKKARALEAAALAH
UniProt Q9BUB5: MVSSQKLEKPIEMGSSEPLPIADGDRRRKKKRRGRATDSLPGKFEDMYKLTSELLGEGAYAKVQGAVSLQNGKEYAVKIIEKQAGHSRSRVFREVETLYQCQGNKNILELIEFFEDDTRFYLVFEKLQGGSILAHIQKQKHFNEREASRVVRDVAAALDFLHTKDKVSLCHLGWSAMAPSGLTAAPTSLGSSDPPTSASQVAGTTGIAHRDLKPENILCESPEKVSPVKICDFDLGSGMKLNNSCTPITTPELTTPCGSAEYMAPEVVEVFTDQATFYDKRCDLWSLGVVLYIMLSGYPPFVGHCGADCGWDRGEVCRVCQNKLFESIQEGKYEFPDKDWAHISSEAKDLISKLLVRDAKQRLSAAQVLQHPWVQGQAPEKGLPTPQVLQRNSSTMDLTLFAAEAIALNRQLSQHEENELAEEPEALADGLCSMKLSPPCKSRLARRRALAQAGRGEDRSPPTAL
UniProt Q16620, whole entry, looked up: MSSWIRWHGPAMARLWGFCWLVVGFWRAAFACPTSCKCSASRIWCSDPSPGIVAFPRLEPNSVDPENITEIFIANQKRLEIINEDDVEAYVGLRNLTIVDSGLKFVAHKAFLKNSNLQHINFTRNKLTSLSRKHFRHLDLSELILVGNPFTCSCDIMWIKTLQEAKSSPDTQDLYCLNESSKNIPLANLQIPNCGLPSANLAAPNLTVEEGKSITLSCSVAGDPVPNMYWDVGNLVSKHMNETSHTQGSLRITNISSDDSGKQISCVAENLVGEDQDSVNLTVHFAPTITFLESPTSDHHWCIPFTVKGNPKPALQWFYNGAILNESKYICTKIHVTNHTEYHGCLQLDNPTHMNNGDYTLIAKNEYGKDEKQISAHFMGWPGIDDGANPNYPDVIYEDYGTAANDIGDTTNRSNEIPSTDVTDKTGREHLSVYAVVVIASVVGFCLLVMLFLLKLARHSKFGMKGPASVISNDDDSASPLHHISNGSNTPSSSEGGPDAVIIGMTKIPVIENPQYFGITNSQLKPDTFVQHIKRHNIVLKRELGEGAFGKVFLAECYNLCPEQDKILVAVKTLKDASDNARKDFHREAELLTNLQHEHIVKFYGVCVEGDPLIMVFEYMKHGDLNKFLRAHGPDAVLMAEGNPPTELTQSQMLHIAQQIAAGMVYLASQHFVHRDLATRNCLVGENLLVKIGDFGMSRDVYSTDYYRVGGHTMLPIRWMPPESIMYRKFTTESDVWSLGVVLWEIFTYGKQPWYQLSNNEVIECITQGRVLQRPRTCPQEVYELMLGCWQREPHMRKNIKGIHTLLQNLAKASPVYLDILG
UniProt Q16288, whole entry, looked up: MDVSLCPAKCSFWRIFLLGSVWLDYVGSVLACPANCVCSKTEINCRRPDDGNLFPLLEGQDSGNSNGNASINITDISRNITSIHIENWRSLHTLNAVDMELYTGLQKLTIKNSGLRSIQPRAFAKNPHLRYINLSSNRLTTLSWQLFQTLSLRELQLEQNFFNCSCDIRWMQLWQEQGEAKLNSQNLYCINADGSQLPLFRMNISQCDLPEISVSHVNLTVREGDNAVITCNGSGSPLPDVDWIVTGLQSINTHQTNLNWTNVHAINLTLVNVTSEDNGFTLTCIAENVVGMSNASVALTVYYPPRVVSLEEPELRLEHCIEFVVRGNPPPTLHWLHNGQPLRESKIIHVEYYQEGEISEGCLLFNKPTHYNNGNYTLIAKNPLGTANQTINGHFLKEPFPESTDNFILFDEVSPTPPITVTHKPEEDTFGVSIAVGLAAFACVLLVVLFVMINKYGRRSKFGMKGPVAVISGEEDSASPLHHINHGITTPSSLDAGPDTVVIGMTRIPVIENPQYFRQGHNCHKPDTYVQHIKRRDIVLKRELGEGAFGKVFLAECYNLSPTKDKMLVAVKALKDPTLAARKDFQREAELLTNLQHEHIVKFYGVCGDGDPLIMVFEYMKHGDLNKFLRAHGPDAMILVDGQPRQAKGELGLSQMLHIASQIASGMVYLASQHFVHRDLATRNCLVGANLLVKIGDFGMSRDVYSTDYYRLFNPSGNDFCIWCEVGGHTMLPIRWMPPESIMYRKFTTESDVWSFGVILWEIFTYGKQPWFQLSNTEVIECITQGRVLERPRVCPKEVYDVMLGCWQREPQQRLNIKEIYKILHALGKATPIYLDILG
UniProt O96013: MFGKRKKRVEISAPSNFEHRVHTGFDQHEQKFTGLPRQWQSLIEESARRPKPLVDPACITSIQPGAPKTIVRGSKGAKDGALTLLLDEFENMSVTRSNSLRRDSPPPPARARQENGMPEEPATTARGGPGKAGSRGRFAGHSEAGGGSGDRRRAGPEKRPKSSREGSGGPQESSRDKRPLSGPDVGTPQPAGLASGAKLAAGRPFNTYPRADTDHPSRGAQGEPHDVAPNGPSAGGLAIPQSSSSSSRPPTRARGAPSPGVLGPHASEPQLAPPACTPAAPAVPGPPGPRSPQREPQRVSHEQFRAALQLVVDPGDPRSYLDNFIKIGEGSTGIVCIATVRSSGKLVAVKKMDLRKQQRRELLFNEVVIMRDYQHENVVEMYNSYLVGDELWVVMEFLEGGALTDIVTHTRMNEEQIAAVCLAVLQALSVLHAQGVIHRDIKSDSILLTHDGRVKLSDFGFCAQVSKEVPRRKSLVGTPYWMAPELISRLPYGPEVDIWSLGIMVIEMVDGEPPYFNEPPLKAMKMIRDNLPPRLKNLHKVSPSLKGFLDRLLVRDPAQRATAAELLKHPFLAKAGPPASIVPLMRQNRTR
UniProt Q96KB5: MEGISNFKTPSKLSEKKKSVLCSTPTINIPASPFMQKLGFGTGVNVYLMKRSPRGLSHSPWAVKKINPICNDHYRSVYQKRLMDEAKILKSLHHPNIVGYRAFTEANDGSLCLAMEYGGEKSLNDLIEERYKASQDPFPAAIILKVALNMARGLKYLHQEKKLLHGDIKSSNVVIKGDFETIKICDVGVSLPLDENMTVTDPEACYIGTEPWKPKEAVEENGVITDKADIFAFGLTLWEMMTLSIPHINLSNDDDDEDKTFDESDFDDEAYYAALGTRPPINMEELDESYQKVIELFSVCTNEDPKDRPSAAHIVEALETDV
UniProt P09619, whole entry: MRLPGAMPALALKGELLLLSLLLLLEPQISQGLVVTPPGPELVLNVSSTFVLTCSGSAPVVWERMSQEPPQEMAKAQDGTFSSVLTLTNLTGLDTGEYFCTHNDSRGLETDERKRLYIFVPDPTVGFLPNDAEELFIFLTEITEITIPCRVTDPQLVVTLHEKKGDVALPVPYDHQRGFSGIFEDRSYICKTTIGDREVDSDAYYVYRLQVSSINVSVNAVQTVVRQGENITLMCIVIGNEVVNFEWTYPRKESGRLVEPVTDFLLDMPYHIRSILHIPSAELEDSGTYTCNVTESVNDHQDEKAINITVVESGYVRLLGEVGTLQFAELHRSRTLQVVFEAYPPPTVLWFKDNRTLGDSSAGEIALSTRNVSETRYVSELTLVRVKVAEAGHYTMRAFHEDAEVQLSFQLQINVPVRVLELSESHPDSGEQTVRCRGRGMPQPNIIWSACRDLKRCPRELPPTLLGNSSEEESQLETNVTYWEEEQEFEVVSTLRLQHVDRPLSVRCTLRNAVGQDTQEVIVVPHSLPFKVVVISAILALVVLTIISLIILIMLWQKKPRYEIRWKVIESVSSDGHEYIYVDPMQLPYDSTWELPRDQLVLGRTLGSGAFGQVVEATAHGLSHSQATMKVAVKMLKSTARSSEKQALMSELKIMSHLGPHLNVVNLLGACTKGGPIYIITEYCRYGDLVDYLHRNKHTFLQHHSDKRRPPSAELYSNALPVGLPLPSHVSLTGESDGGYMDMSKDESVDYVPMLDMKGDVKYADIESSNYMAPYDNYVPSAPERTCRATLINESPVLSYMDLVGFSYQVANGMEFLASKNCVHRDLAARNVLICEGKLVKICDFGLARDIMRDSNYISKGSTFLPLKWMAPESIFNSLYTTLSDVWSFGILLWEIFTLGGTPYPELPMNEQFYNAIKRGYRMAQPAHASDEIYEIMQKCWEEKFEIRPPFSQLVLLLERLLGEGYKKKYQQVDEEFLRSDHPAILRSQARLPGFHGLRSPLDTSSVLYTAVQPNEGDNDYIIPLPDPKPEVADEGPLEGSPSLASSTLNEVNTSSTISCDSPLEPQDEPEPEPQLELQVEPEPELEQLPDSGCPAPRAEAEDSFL
UniProt Q15118, whole entry, looked up: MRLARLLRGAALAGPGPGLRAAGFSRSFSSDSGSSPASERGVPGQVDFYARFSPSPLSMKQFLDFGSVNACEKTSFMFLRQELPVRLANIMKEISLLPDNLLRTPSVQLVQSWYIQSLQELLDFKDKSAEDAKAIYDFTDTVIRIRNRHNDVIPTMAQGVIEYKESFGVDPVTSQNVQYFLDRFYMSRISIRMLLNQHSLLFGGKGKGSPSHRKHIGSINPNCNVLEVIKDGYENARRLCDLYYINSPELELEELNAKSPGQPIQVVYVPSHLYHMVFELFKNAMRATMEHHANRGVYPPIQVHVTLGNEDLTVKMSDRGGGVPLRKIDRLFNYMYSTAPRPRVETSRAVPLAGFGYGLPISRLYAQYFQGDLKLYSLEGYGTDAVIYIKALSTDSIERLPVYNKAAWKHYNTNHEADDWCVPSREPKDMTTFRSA

Tests used:
Experiment in all cases: kinase-Nluc reporter destabilization hit call (1 = scored as downregulated) (binary); higher = compound decreases kinase abundance
Settings in all cases: K562, 2-18 h
MAPK1 = MAPK1 (UniProt P28482)
MAPK4 = MAPK4 (UniProt P31152)
MAPKAPK2 = MAPKAPK2 (UniProt P49137)
MKNK1 = MKNK1 (UniProt Q9BUB5)
NTRK2 = NTRK2 (UniProt Q16620)
NTRK3 = NTRK3 (UniProt Q16288)
PAK4 = PAK4 (UniProt O96013)
PBK = PBK (UniProt Q96KB5)
PDGFRB = PDGFRB (UniProt P09619)
PDK1 = PDK1 (UniProt Q15118)

Measured: kinase-Nluc reporter destabilization hit call

CN(C)C(=N)NC(=N)N [Metformin]
inactive: MAPK1; 10 µM 0 | MAPK4; 10 µM 0 | MAPKAPK2; 10 µM 0 | MKNK1; 10 µM 0 | NTRK2; 10 µM 0 | NTRK3; 10 µM 0 | PAK4; 10 µM 0 | PBK; 10 µM 0 | PDGFRB; 10 µM 0 | PDK1; 10 µM 0

C[C@H](CCC(=O)NCCS(=O)(=O)O)[C@H]1CC[C@H]2[C@@H]3[C@@H](O)C[C@@H]4C[C@H](O)CC[C@]4(C)[C@H]3CC[C@]12C [Tauroursodeoxycholate (dihydrate)]
inactive: MAPK1; 10 µM 0 | MAPK4; 10 µM 0 | MAPKAPK2; 10 µM 0 | MKNK1; 10 µM 0 | NTRK2; 10 µM 0 | NTRK3; 10 µM 0 | PAK4; 10 µM 0 | PBK; 10 µM 0 | PDGFRB; 10 µM 0 | PDK1; 10 µM 0

C=CC(=O)Nc1cc(Nc2nccc(-c3cn(C)c4ccccc34)n2)c(OC)cc1N(C)CCN(C)C [Osimertinib mesylate]
inactive: MAPK1; 2.5 µM 0 | MAPK4; 2.5 µM 0 | MAPKAPK2; 2.5 µM 0 | MKNK1; 2.5 µM 0 | NTRK2; 2.5 µM 0 | NTRK3; 2.5 µM 0 | PAK4; 2.5 µM 0 | PBK; 2.5 µM 0 | PDGFRB; 2.5 µM 0 | PDK1; 2.5 µM 0

COc1cc2nccc(Nc3cc(OC)c(OC)c(OC)c3)c2cc1OC [GAK inhibitor 49]
inactive: MAPK1; 10 µM 0 | MAPK4; 10 µM 0 | MAPKAPK2; 10 µM 0 | MKNK1; 10 µM 0 | NTRK2; 10 µM 0 | NTRK3; 10 µM 0 | PAK4; 10 µM 0 | PBK; 10 µM 0 | PDGFRB; 10 µM 0 | PDK1; 10 µM 0

OCCn1cc(-c2cnc3nnn(Cc4ccc5ncccc5c4)c3n2)cn1
inactive: MAPK1; 10 µM 0 | MAPK4; 10 µM 0 | MAPKAPK2; 10 µM 0 | MKNK1; 10 µM 0 | NTRK2; 10 µM 0 | NTRK3; 10 µM 0 | PAK4; 10 µM 0 | PBK; 10 µM 0 | PDGFRB; 10 µM 0 | PDK1; 10 µM 0

Cc1cccc(/C=N/Nc2cc(N3CCOCC3)nc(OCCc3ccccn3)n2)c1 [Apilimod (mesylate)]
inactive: MAPK1; 10 µM 0 | MAPK4; 10 µM 0 | MAPKAPK2; 10 µM 0 | MKNK1; 10 µM 0 | NTRK2; 10 µM 0 | NTRK3; 10 µM 0 | PAK4; 10 µM 0 | PBK; 10 µM 0 | PDGFRB; 10 µM 0 | PDK1; 10 µM 0

C[S+]([O-])c1ccc(-c2nc(-c3ccc(F)cc3)c(-c3ccncc3)[nH]2)cc1 (stereo not given)
inactive: MAPK1; 10 µM 0 | MAPK4; 10 µM 0 | MAPKAPK2; 10 µM 0 | MKNK1; 10 µM 0 | NTRK2; 10 µM 0 | NTRK3; 10 µM 0 | PAK4; 10 µM 0 | PBK; 10 µM 0 | PDGFRB; 10 µM 0 | PDK1; 10 µM 0

CN(C)C/C=C/C(=O)Nc1cc2c(Nc3ccc(F)c(Cl)c3)ncnc2cc1O[C@H]1CCOC1 [Afatinib]
inactive: MAPK1; 10 µM 0 | MAPK4; 10 µM 0 | MAPKAPK2; 10 µM 0 | MKNK1; 10 µM 0 | NTRK2; 10 µM 0 | NTRK3; 10 µM 0 | PAK4; 10 µM 0 | PBK; 10 µM 0 | PDGFRB; 10 µM 0 | PDK1; 10 µM 0

C=CC(=O)Nc1cc(Nc2nccc(-c3cn(C)c4ccccc34)n2)c(OC)cc1N(C)CCN(C)C [Osimertinib (dimesylate)]
inactive: MAPK1; 2.5 µM 0 | MAPK4; 2.5 µM 0 | MAPKAPK2; 2.5 µM 0 | MKNK1; 2.5 µM 0 | NTRK2; 2.5 µM 0 | NTRK3; 2.5 µM 0 | PAK4; 2.5 µM 0 | PBK; 2.5 µM 0 | PDGFRB; 2.5 µM 0 | PDK1; 2.5 µM 0

CC(=O)Nc1cccc(-n2c(=O)n(C3CC3)c(=O)c3c(Nc4ccc(I)cc4F)n(C)c(=O)c(C)c32)c1 [Trametinib]
inactive: MAPK1; 10 µM 0 | MAPK4; 10 µM 0 | MAPKAPK2; 10 µM 0 | MKNK1; 10 µM 0 | NTRK2; 10 µM 0 | NTRK3; 10 µM 0 | PAK4; 10 µM 0 | PBK; 10 µM 0 | PDGFRB; 10 µM 0 | PDK1; 10 µM 0

CN1CCCN(C(=O)c2cccc(-c3ccc(/C=C4/C(=O)Nc5ccc(Cl)cc54)o3)c2)CC1 [CX-6258 (hydrochloride hydrate)]
inactive: MAPK1; 2.5 µM 0 | MAPK4; 2.5 µM 0 | MAPKAPK2; 2.5 µM 0 | MKNK1; 2.5 µM 0 | NTRK2; 2.5 µM 0 | NTRK3; 2.5 µM 0 | PAK4; 2.5 µM 0 | PBK; 2.5 µM 0 | PDGFRB; 2.5 µM 0 | PDK1; 2.5 µM 0

C#Cc1cccc(Nc2ncnc3cc4c(cc23)OCCOCCOCCO4)c1 [Icotinib]
inactive: MAPK1; 10 µM 0 | MAPK4; 10 µM 0 | MAPKAPK2; 10 µM 0 | MKNK1; 10 µM 0 | NTRK2; 10 µM 0 | NTRK3; 10 µM 0 | PAK4; 10 µM 0 | PBK; 10 µM 0 | PDGFRB; 10 µM 0 | PDK1; 10 µM 0

CC(C)(C)n1nc(-c2cccc3ccccc23)c2c(N)ncnc21 [1-Naphthyl PP1]
inactive: MAPK1; 10 µM 0 | MAPK4; 10 µM 0 | MAPKAPK2; 10 µM 0 | MKNK1; 10 µM 0 | NTRK2; 10 µM 0 | NTRK3; 10 µM 0 | PAK4; 10 µM 0 | PBK; 10 µM 0 | PDGFRB; 10 µM 0 | PDK1; 10 µM 0

Cc1cc(Nc2ncc(Cl)c(Nc3ccccc3S(=O)(=O)C(C)C)n2)c(OC(C)C)cc1C1CCNCC1 [Ceritinib dihydrochloride]
inactive: MAPK1; 2.5 µM 0 | MAPK4; 2.5 µM 0 | MAPKAPK2; 2.5 µM 0 | MKNK1; 2.5 µM 0 | NTRK2; 2.5 µM 0 | NTRK3; 2.5 µM 0 | PAK4; 2.5 µM 0 | PBK; 2.5 µM 0 | PDGFRB; 2.5 µM 0 | PDK1; 2.5 µM 0

COc1ccc2c(c1)C(c1ccc(F)cc1)=C(CN1CCCC1)CO2 [AX-024 hydrochloride]
inactive: MAPK1; 10 µM 0 | MAPK4; 10 µM 0 | MAPKAPK2; 10 µM 0 | MKNK1; 10 µM 0 | NTRK2; 10 µM 0 | NTRK3; 10 µM 0 | PAK4; 10 µM 0 | PBK; 10 µM 0 | PDGFRB; 10 µM 0 | PDK1; 10 µM 0

COc1cc2c(-c3cnn4cc(N5CCC(N6CCN(C)CC6)CC5)cnc34)ccnc2cc1F [ALK2-IN-4 (succinate)]
inactive: MAPK1; 10 µM 0 | MAPK4; 10 µM 0 | MAPKAPK2; 10 µM 0 | MKNK1; 10 µM 0 | NTRK2; 10 µM 0 | NTRK3; 10 µM 0 | PAK4; 10 µM 0 | PBK; 10 µM 0 | PDGFRB; 10 µM 0 | PDK1; 10 µM 0

CCN(CC)CC(=O)Nc1c(C)cccc1C [Lidocaine]
inactive: MAPK1; 10 µM 0 | MAPK4; 10 µM 0 | MAPKAPK2; 10 µM 0 | MKNK1; 10 µM 0 | NTRK2; 10 µM 0 | NTRK3; 10 µM 0 | PAK4; 10 µM 0 | PBK; 10 µM 0 | PDGFRB; 10 µM 0 | PDK1; 10 µM 0

C[C@H](CCC(=O)NCCS(=O)(=O)O)[C@H]1CC[C@H]2[C@@H]3[C@@H](O)C[C@@H]4C[C@H](O)CC[C@]4(C)[C@H]3CC[C@]12C [Tauroursodeoxycholate (sodium)]
inactive: MAPK1; 10 µM 0 | MAPK4; 10 µM 0 | MAPKAPK2; 10 µM 0 | MKNK1; 10 µM 0 | NTRK2; 10 µM 0 | NTRK3; 10 µM 0 | PAK4; 10 µM 0 | PBK; 10 µM 0 | PDGFRB; 10 µM 0 | PDK1; 10 µM 0

C#Cc1cccc(Nc2ncnc3cc(OCCOC)c(OCCOC)cc23)c1 [Erlotinib]
inactive: MAPK1; 10 µM 0 | MAPK4; 10 µM 0 | MAPKAPK2; 10 µM 0 | MKNK1; 10 µM 0 | NTRK2; 10 µM 0 | NTRK3; 10 µM 0 | PAK4; 10 µM 0 | PBK; 10 µM 0 | PDGFRB; 10 µM 0 | PDK1; 10 µM 0

CC(C)Nc1cc(-c2c[nH]c(C(=O)N[C@H](CO)c3cccc(Cl)c3)c2)c(Cl)cn1 [Ulixertinib]
inactive: MAPK1; 10 µM 0 | MAPK4; 10 µM 0 | MAPKAPK2; 10 µM 0 | MKNK1; 10 µM 0 | NTRK2; 10 µM 0 | NTRK3; 10 µM 0 | PAK4; 10 µM 0 | PBK; 10 µM 0 | PDGFRB; 10 µM 0 | PDK1; 10 µM 0

COc1ccnc(C[S+]([O-])c2nc3cc(-n4cccc4)ccc3[nH]2)c1C (stereo not given) [Ilaprazole (sodium)]
inactive: MAPK1; 10 µM 0 | MAPK4; 10 µM 0 | MAPKAPK2; 10 µM 0 | MKNK1; 10 µM 0 | NTRK2; 10 µM 0 | NTRK3; 10 µM 0 | PAK4; 10 µM 0 | PBK; 10 µM 0 | PDGFRB; 10 µM 0 | PDK1; 10 µM 0

N#CCNC(=O)c1ccc(-c2ccnc(Nc3ccc(N4CCOCC4)cc3)n2)cc1 [Momelotinib]
inactive: MAPK1; 10 µM 0 | MAPK4; 10 µM 0 | MAPKAPK2; 10 µM 0 | MKNK1; 10 µM 0 | NTRK2; 10 µM 0 | NTRK3; 10 µM 0 | PAK4; 10 µM 0 | PBK; 10 µM 0 | PDGFRB; 10 µM 0 | PDK1; 10 µM 0

Reprinted at random: 2 records from the list, in no set order.
CN1CCCN(C(=O)c2cccc(-c3ccc(/C=C4/C(=O)Nc5ccc(Cl)cc54)o3)c2)CC1 [CX-6258 (hydrochloride hydrate)]
inactive: MAPK1; 2.5 µM 0 | MAPK4; 2.5 µM 0 | MAPKAPK2; 2.5 µM 0 | MKNK1; 2.5 µM 0 | NTRK2; 2.5 µM 0 | NTRK3; 2.5 µM 0 | PAK4; 2.5 µM 0 | PBK; 2.5 µM 0 | PDGFRB; 2.5 µM 0 | PDK1; 2.5 µM 0

CC(=O)Nc1cccc(-n2c(=O)n(C3CC3)c(=O)c3c(Nc4ccc(I)cc4F)n(C)c(=O)c(C)c32)c1 [Trametinib]
inactive: MAPK1; 10 µM 0 | MAPK4; 10 µM 0 | MAPKAPK2; 10 µM 0 | MKNK1; 10 µM 0 | NTRK2; 10 µM 0 | NTRK3; 10 µM 0 | PAK4; 10 µM 0 | PBK; 10 µM 0 | PDGFRB; 10 µM 0 | PDK1; 10 µM 0

Further records:

C#Cc1cccc(Nc2ncnc3cc(OCCOC)c(OCCOC)cc23)c1 [Erlotinib (Hydrochloride)]
inactive: MAPK1; 10 µM 0 | MAPK4; 10 µM 0 | MAPKAPK2; 10 µM 0 | MKNK1; 10 µM 0 | NTRK2; 10 µM 0 | NTRK3; 10 µM 0 | PAK4; 10 µM 0 | PBK; 10 µM 0 | PDGFRB; 10 µM 0 | PDK1; 10 µM 0

C/C=C1\C(=O)C[C@H]2[C@@H]3CCC4=CC(=O)CC[C@]4(C)[C@H]3CC[C@]12C [(Z)-Guggulsterone]
inactive: MAPK1; 10 µM 0 | MAPK4; 10 µM 0 | MAPKAPK2; 10 µM 0 | MKNK1; 10 µM 0 | NTRK2; 10 µM 0 | NTRK3; 10 µM 0 | PAK4; 10 µM 0 | PBK; 10 µM 0 | PDGFRB; 10 µM 0 | PDK1; 10 µM 0

O=C(c1nn(-c2ccc(CN3CCOCC3)cc2)c2c1CS(=O)(=O)c1c(F)cccc1-2)N1CCOCC1
inactive: MAPK1; 10 µM 0 | MAPK4; 10 µM 0 | MAPKAPK2; 10 µM 0 | MKNK1; 10 µM 0 | NTRK2; 10 µM 0 | NTRK3; 10 µM 0 | PAK4; 10 µM 0 | PBK; 10 µM 0 | PDGFRB; 10 µM 0 | PDK1; 10 µM 0

COc1cc2nccc(Nc3cc(OC)c(OC)c(OC)c3)c2cc1OC [GAK inhibitor 49 (hydrochloride)]
inactive: MAPK1; 10 µM 0 | MAPK4; 10 µM 0 | MAPKAPK2; 10 µM 0 | MKNK1; 10 µM 0 | NTRK2; 10 µM 0 | NTRK3; 10 µM 0 | PAK4; 10 µM 0 | PBK; 10 µM 0 | PDGFRB; 10 µM 0 | PDK1; 10 µM 0
